# Library screening results

The values are deposited in ChEMBL (CHEMBL3988442, “University of Dundee, Small-Polar-MMV Screening Library” (2021)).

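Viability assay of Plasmodium falciparum sporozoites; the read-out is not stated. The concentration is filed as 10 mM, unlikely as a test dose, so the dose is not known. Direction is inferred from retests: higher values go with lower viability. Strong results were mostly tested again. Of about 34,000 compounds tested this way, about 280 (0.84%) reached 50% or more in at least one test.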

The filed quantity is “Percent Effect” (%). How 0% and 100% were set is not recorded. Most values in the screen are low, and negative values occur. The compounds are a random part of those screened. Two or more numbers in one place are separate tests of the same structure; such repeats can differ widely.

CC(C)c1nc(CN2CCOC(Cn3cncn3)C2)no1 (stereo unspecified) read 9.891%.
Cc1cc2n(n1)CC(CNCc1ccccc1Cn1cccn1)CN2 (stereo unspecified) read 7.169%.
O=C(CSc1ccncc1)N1CCC2(CC1)c1ccccc1CC2O (stereo unspecified) read 5.702%.
COCCNc1ncc(-c2onc(C)c2C)c(-c2ccco2)n1 read 5.244%.
CN1CCN(c2ncccn2)CC1C(N)=O (stereo unspecified) read 12.07%.
CS(=O)(=O)NCc1nnc2n1CCN(Cc1cccs1)CC2.O=C(O)C(F)(F)F read 7.302%.
Cc1nccc(-c2cccc(NCC(=O)N3CCOCC3)c2)n1 read 8.169%.
CC(C)N1CC(n2ccnc2-c2nccn2C)CC1=O (stereo unspecified) read 0.1538%.
CCN(Cc1ccoc1)C(=O)c1cc(C)c(C)c(S(N)(=O)=O)c1 read -23.07%.
CN(CC(=O)NC1(C)CCS(=O)(=O)C1)Cc1ccc(Br)cc1 (stereo unspecified) read 20.05%.
Cl.c1cc(OCc2ccc3c(c2)OCO3)ccc1CNC1CC1 read 33.09% and 60.95% and 82.86%.
Cc1cc(C)n(CC2CN(Cc3nc(C4CC4)no3)CCO2)n1 (stereo unspecified) read 12.09%.
Cc1cc(Br)ccc1NCc1ccc(C(=O)N(C)C)[nH]1 read 3.52%.
Cn1ccc(C(=O)N2CCN(c3nccs3)CC2)cc1=O read 8.105% and 6.06% and -5.959%.
CC(C)CNC(=O)c1cccc(CN2CCc3c(ncn3C)C2)c1 read 0.5877%.
O=C(Cn1cccn1)NCC1(c2ccccc2)CC1 read -1.618%.
c1ccc(OCCCN2CCOC(CNc3cccnn3)C2)cc1 (stereo unspecified) read 7.126%.
CCOc1cc(=O)n2c(c1C(=O)OCc1ccc(OC)cc1)CCCC2 read 1.19%.
CCc1nc(C2CCCN2CC(=O)Nc2nnc(C)s2)no1 (stereo unspecified) read 5.856%.
CN1CCOC(CNC(=O)CCCc2ccccc2)C1 (stereo unspecified) read -40.65% and -48.28%.
CN(C)C(=O)C1CN(Cc2c[nH]cn2)CCN(C2CCOCC2)C1 (stereo unspecified) read -9.36%.
Cc1ccc(CNCc2nnc3n2CC(C(F)(F)F)CC3)cc1 (stereo unspecified) read -10.84%.
Fc1ccccc1Oc1nccnc1C1CCN(C2CCOCC2)CC1 read 13.56%.
CC(C)C(=O)N1CCC(C2C(=O)Nc3ccccc32)CC1 (stereo unspecified) read 5.646%.
CNC(=O)c1ccccc1-c1ccc(S(C)(=O)=O)cc1 read -8.133%.
Cc1cnn(C(C)C2CC2)c1NC(=O)c1cnccn1 (stereo unspecified) read -14.86%.
CC(=O)NC1Cc2ccc(S(=O)(=O)NCCNc3ccccn3)cc2C1 (stereo unspecified) read 10.07%.
CN(C(=O)NCCCN1CCCC1)C1CCN(c2ccccc2)C1=O (stereo unspecified) read -0.3298%.
CSc1cc2c(cc1NC(=O)NCCn1ccnc1)OCCO2 read 101.5% and 100.4% and 104.7%.
c1cc(NC2CC3(CCN(Cc4cc[nH]n4)C3)C2)ncn1 (stereo unspecified) read -9.36%.
Cc1cnn(CC2CCCN2C(=O)c2ccc(F)cc2Cl)c1 (stereo unspecified) read 5.537%.
CC(=O)c1cc(C(=O)N2CCC3(CC2)Nc2ccccc2NC3=O)cs1 read -3.07%.
Cn1cc(C2CCCN2C(=O)CCCc2ccccn2)cn1 (stereo unspecified) read 11.17%.
Cc1cc(NC(=O)NCC(O)c2ccc(F)cc2)n(C)n1 (stereo unspecified) read -3.199%.
O=C(NCc1cc(=O)n2c(n1)CN(CC1CCOC1)CCC2)C1CC1.O=C(O)C(F)(F)F (stereo unspecified) read -6.268%.
COCC1c2c(cnn2CC2CC2)CCN1Cc1ccc(C)o1.O=C(O)C(F)(F)F.O=C(O)C(F)(F)F (stereo unspecified) read 19.56%.
CS(=O)(=O)NC1CCCN(C(=O)c2cccnc2)C1 (stereo unspecified) read 11.87%.
O=C(O)C(F)(F)F.[H][C@@]12CN(C3CCOCC3)C[C@@]1([H])N(Cc1cccc(F)c1)C(=O)CO2 read 3.367%.
COC(=O)CNC(=O)CCc1cc(Cl)cs1 read -0.7353%.
CCc1ncc2c(n1)CN(Cc1nc(-c3ccccn3)no1)CC2 read 3.631% and 21.27% and 6.372%.
c1cc(NCc2cscn2)cc(OCCN2CCCCC2)c1 read -12.43%.
CC(C)(C)CC(=O)NCCCn1cncn1 read -4.042%.
Cn1c(Cn2cccn2)nnc1C1CCN(Cc2cccnc2N)CC1 read -4.479%.
O=C(O)C(F)(F)F.[H][C@@]12CNC(=O)[C@@H](C)[C@]1([H])CN(CCc1ccccc1)C2 read 9.308%.
CC(=O)Nc1ccc(CNC(C)c2c(C)nn(C)c2C)cc1 (stereo unspecified) read 9.123%.
O=C(O)C(F)(F)F.O=C(O)C(F)(F)F.[H][C@@]12OCCN(C(=O)c3cncc(C)c3)[C@@]1([H])CC[C@H]2Oc1ccccn1 read 3.559%.
CN(C)Cc1cc(=O)n2c(n1)CN(C(=O)Cc1ccsc1)CCC2.O=C(O)C(F)(F)F read -6.979%.
CCCn1nc(-c2nc(Cc3ccc(OC)cc3)no2)ccc1=O read -4.8%.

Repeated from the top, 3 entries:

| compound | Percent Effect |
|---|---|
| `CC(C)c1nc(CN2CCOC(Cn3cncn3)C2)no1` (stereo unspecified) | 9.891 |
| `Cc1cc2n(n1)CC(CNCc1ccccc1Cn1cccn1)CN2` (stereo unspecified) | 7.169 |
| `O=C(CSc1ccncc1)N1CCC2(CC1)c1ccccc1CC2O` (stereo unspecified) | 5.702 |